We go through one molecule from publication PMC11062913.

Results are given in words; binding and its absence hold for the method and conditions named. Binding calls can cover weak binding; strength is not graded here.

The target in this test is Integrator subunit INTS3 (human) (UniProt Q68E01). Nature of the test: cryo-EM structure; post-termination complex (Integrator–PP2A–SOSS–CTD), a class of particles from the PEC–Integrator–PP2A–SOSS sample; glycerol-gradient peak cross-linked with 0.2% glutaraldehyde; 3.7 Å; both purified.

B1: INIP (protein, UniProt Q9NRY2-1 1-104)
chain: MAANSSGQGFQNKNRVAILAELDKEKRKLLMQNQSSTNHPGASIALSRPSLNKDFRDHAEQQHIAAQQKAALQHAHAHSSGYFITQDSAFGNLILPVLPRLDPE
With B1, the binding entry is “binds”.
